Source: article PMC9934649 (bioRxiv, 2023)

System: 403 wild-type (WT) human kinases
Assay: Kinome-wide selectivity, scanMAX panel
Format: binding
Settings: 1 µM

Compound: O=C(Nc1c[nH]nc1C(=O)NC1CCNCC1)c1cc(F)cc(F)c1 [Compound 2, 4-(3,5-difluorobenzamido)-N-(piperidin-4-yl)-1H-pyrazole-3-carboxamide]
- Number of kinases bound with PoC <10: 4 kinases

Compound: O=C(NCC1CCOCC1)c1n[nH]cc1NC(=O)c1c(F)cccc1F [Compound 4, 4-(2,6-difluorobenzamido)-N-((tetrahydro-2H-pyran-4-yl)methyl)-1H-pyrazole-3-carboxamide]
- Number of kinases bound with PoC <10: 5 kinases
